Results are given in words; binding and its absence hold for the method and conditions named. A result given as binding can be weak or reduced; the word gives no strength.
Key:
[1] = target: human PVRIG expressed on the cell surface (human) (UniProt Q6DKI7); assay: flow cytometry on cells overexpressing human PVRIG, labelled anti-human IgG (method of Example 5)
[2] = target: his-tagged human PVRIG recombinant protein (human) (UniProt Q6DKI7); assay: ELISA, plate coated with human PVRIG recombinant protein, HRP anti-human IgG, OD450 (method of Example 4)
[3] = target: his-tagged human PVRIG recombinant protein (human) (UniProt Q6DKI7); assay: BLI (Fortebio), antibody on Protein A sensor

By UniProt entry, the sequences of proteins in these tests, tags left out. Where a name states a change or a piece, a line headed by the entry shows the natural chain unless it says otherwise.
UniProt Q6DKI7: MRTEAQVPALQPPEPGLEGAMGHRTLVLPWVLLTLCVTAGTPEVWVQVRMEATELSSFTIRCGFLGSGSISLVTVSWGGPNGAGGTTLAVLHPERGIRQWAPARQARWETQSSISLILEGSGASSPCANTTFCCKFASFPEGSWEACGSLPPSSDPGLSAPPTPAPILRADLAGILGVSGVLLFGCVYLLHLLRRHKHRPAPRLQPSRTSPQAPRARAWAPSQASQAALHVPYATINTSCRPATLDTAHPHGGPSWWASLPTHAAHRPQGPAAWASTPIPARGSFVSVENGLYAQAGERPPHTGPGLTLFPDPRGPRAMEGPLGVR

Measured: binding

B1: positive antibody Tab5 (antibody, human IgG4 S228P, kappa, F234A L235A, V domains shown)
VH: EVQLVESGGGVVKPGGSLRLSCAASGFTFGTSSMNWVRQAPGKGLEWVAVISFDGTEIHYADSVKGRFTISRDNSKSTVFLQMNSLRPDDTALYYCAKGSGNIYFYSGMDVWGQGTTVTVSS
VL: DIQMTQSPSTLSASVGDRVTITCRAGQSISGWLAWFQQKPGKAPNLLIYETSTLESGVPSRFSGSGSGTEYTLTISSLQPDDFATYYCQQYYSYPLTFGQGTKVEIKR
binds: all assays above

Reference: patent publication US20240043530A1 (JIANGSU HENGRUI PHARMACEUTICALS, published 2024)
